Results as given in PubChem BioAssay AID1347075 (National Center for Advancing Translational Sciences (NCATS), 2019).
Screen size: about 400,000 compounds; about 5,500 (1.4%) were called active. Inconclusive results, whose numbers are uncertain, are shown with a selection of clear calls. The call rests on the fitted dose curve; in most records, active means well fitted cell-killing curve with a large enough effect; inconclusive means small, poorly fitted or top-dose-only effect, or effect the other way; inactive means flat fitted curve, though single readings scatter. Potencies beside an inconclusive call are fits to weak or partial responses and may not hold up.

assay: qHTS assay for MDR1-selective chemotherapeutics: Primary screen using the parental adenocarcinoma cell KB-3-1; details: KB-3-1 viability, CellTiter-Glo ATP luminescence, 72 h; activity change, negative = cytotoxic: at 46.1 µM (top of the series); further: nearly all actives have a fitted effect of over 60% in size
How it was run: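 Luminescent ATP read-out (CellTiter-Glo) measures survival of drug-naive KB-3-1 cells after 72 h compound exposure at 37 °C. Titration series was screened from lowest to highest concentration, with DMSO vehicle plates as background controls.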
On the % scale 0 is the no-effect control and ±100 the full control effect; potency means the concentration at half of the fitted maximal effect.

SMILES | Potency | activity change, negative = cytotoxic
O=C1CCC/C(=N/Nc2ccc(Cl)cc2)C1 | inconclusive: 16.4 µM [cytotoxic, single point] | 
CCc1ccc(Nc2cc(C(=O)NCCCN3CCOCC3)c3ccccc3n2)cc1 | inconclusive: 32.6 µM [cytotoxic, single point] | 
Cc1ccc(CN2C(=O)N(c3ccc(C)c(Cl)c3)S(=O)(=O)c3ccccc32)cc1 |  | inactive: -14.8%
Cc1ccccc1OCC(=O)N/N=C/c1cn(Cc2ccccc2)c2ccccc12 | inconclusive: 13 µM [cytotoxic, partial curve, poor fit] | 
COc1cccc(NC(=O)CN2C(=O)C3(SCC(=O)N3c3cc(C)cc(C)c3)c3ccccc32)c1 (stereo unspecified) | inconclusive: 0.0326 µM [cytotoxic, full curve] | 
COc1cc(/C=N/NC(=O)c2cccc(NC(=O)c3ccccc3Cl)c2)ccc1O | inconclusive: 7.31 µM [rising, partial curve, poor fit] | 
CCOC(=O)/C=c1\s/c(=C\c2ccc3cc(OC)ccc3c2)c(=O)n1CC(=O)NCC1CCCO1 (stereo unspecified) | active: 20.6 µM | 
O=C(NC1CCCC1)c1ccc(CS(=O)(=O)Cc2ccccc2Cl)o1 | inconclusive: 20.6 µM [rising, partial curve, poor fit] | 
CN(C)c1ccc2nc3ccc(=O)cc-3sc2c1 | inconclusive: 29.1 µM [cytotoxic, single point] | 
N#Cc1ccc(NC(=O)COCc2cc(-c3ccc(F)cc3)on2)cc1 |  | inactive: -2.34%
Cc1csc(NC(=O)C2CCCN(S(=O)(=O)c3ccc4c(c3)oc(=O)n4C)C2)n1 (stereo unspecified) | inconclusive: 18.4 µM [cytotoxic, single point] | 
COc1cc(-c2cc3nc(NCc4cccc(Cl)c4)ccn3n2)cc(OC)c1OC | inconclusive: 29.1 µM [cytotoxic, single point] | 
O=C(Nc1ccccc1N1CCN(C(=O)c2ccc(Cl)cc2)CC1)c1ccc([N+](=O)[O-])o1 | active: 20.6 µM | 
O=C(c1ccccc1)c1ccc(N2CCN(C(=O)c3ccc(F)cc3F)CC2)c(F)c1 | inconclusive: 16.4 µM [cytotoxic, partial curve, poor fit] | 
O=C(CCc1nnc(Cc2cccc(C(F)(F)F)c2)o1)NCCc1ccccc1F | inconclusive: 29.1 µM [rising, partial curve, poor fit] | 
O=C(NC1(O)C(=O)c2ccccc2C1=O)c1ccccc1 |  | inactive: -0.661%
CCOC(=O)C1CCN(C(=O)c2nn(-c3ccc(C)cc3)c(=O)n(C)c2=O)CC1 |  | inactive: 7.5%
COc1ccc(CNC(=O)CCS(=O)(=O)c2ccc3c(c2)CC(C)N3C(=O)C2CC2)cc1 (stereo unspecified) | inconclusive: 23.1 µM [cytotoxic, single point] | 
CCOC(=O)CSc1nc2ccccc2n2c(C)nnc12 | inactive | 
COCCCn1c(SCC(=O)N2CCCC(C)C2)nnc1-c1ccco1 (stereo unspecified) |  | inactive: 3.44%
CCOc1cc(-c2sc(Nc3ccccc3)n[n+]2-c2ccc(F)cc2)ccc1OC | inconclusive: 29.1 µM [rising, single point] | 
COc1cc(NC(=O)c2sc3nc(C)nc(N4CCOCC4)c3c2C)cc(OC)c1OC |  | inactive: -26.5%
COc1cccc2cc(/C(=N/O)c3ccccc3)oc12 | inconclusive: 2.91 µM [cytotoxic, partial curve, poor fit] | 

Four structures out of the list, ordered by SMILES length, largest number first:
SMILES | Potency | activity change, negative = cytotoxic
CCOC(=O)/C=c1\s/c(=C\c2ccc3cc(OC)ccc3c2)c(=O)n1CC(=O)NCC1CCCO1 (stereo unspecified) | active: 20.6 µM | 
CCOc1cc(-c2sc(Nc3ccccc3)n[n+]2-c2ccc(F)cc2)ccc1OC | inconclusive: 29.1 µM [rising, single point] | 
COc1cccc2cc(/C(=N/O)c3ccccc3)oc12 | inconclusive: 2.91 µM [cytotoxic, partial curve, poor fit] | 
O=C1CCC/C(=N/Nc2ccc(Cl)cc2)C1 | inconclusive: 16.4 µM [cytotoxic, single point] | 

Continuation.

SMILES | Potency | activity change, negative = cytotoxic
CC1=C(C(=O)OC2CCCC2)C(c2cccc(Cl)c2Cl)CC(=O)N1 (stereo unspecified) |  | inactive: 0.303%
COc1ccc(-c2nnc(SCc3nnc(-c4ccc(Cl)cc4)o3)n2-c2ccccc2)cc1 | inconclusive: 29.1 µM [cytotoxic, single point] | 
Cc1ccc(Cl)cc1N1CCN(C(=O)c2cn(C)c3ccc(S(=O)(=O)N4CCCC4)cc3c2=O)CC1 |  | inactive: -2.99%
Cn1cc([N+](=O)[O-])c(C(=O)NCc2cc3cc(Cl)ccc3[nH]2)n1 | active: 9.2 µM | 
O=C(O)C1CCN(c2c([N+](=O)[O-])cc(C(F)(F)F)cc2[N+](=O)[O-])CC1 |  | inactive: 9.84%
CC(Oc1ccc2ccccc2c1)C(=O)NNC(=S)NC(=O)c1ccco1 (stereo unspecified) | inconclusive: 29.1 µM [cytotoxic, single point] | 
CC(C)OCCCn1c(=N)c(C(N)=S)cc2c(=O)n3ccccc3nc21 |  | inactive: 15.8%
C(=Nn1cnnc1)c1ccc2c(c1)CCC2 | active: 16.4 µM | 
CC(C)C[C@@H](COCc1cccc(Cl)c1)N1CCN(C(=O)c2cccc(C(F)(F)F)c2)CCC1=O |  | inactive: -4.75%
CCN(CC)C(=O)CSC(Nc1ccc(F)cc1)=C(C#N)C#N |  | inactive: 12.5%
COCc1cc(C)n(CC(=O)Nc2cccc(C)c2)c(=O)c1C#N |  | inactive: 14.3%
CN1CCc2c(sc3c2C(=O)NC(c2ccc(-c4ccc(Cl)cc4)o2)N3)C1 (stereo unspecified) |  | inactive: 5.11%
CCN1CCN(c2ncc3c(n2)CCN(Cc2ccc(C)s2)C3)CC1 | inconclusive: 0.231 µM [cytotoxic, full curve] | 
CCOC(=O)Cn1cc(/C=N/N2C(=O)C3C4C=CC(C4)C3C2=O)c2ccccc21 (stereo unspecified) |  | inactive: 15.7%
COC(=O)c1ccc(/C=N/OCC(=O)NC2CCCC(C)C2C)cc1 (stereo unspecified) |  | inactive: 2.99%
O=C(CN1C(=O)S/C(=C\C=C\c2ccccc2)C1=O)Nc1cccc(O)c1 | inconclusive: 29.1 µM [cytotoxic, single point] | 
Cc1ccc(C2Nc3ccccc3C(=O)N2Cc2ccco2)cc1 (stereo unspecified) | inconclusive: 25.9 µM [cytotoxic, single point] | 
O=C(Nc1ccc(N2CCOCC2)c(Cl)c1)c1c(F)c(F)c(F)c(F)c1F |  | inactive: -6.31%
Cc1c(C(=O)OCC(=O)N2CC(=O)Nc3ccccc32)oc2ccc(Br)cc12 | inconclusive: 29.1 µM [cytotoxic, single point] | 
Cn1c(-c2ccccc2)c(C(=O)CCl)c2ccccc21 | inconclusive: 25.9 µM [cytotoxic, partial curve, poor fit] | 
Cc1cc(N)n2nc(-c3ccccc3)cc2n1 | inconclusive: 20.6 µM [cytotoxic, single point] | 
Cc1cc(NC(=O)c2ccc([N+](=O)[O-])o2)ccc1NC(=O)c1ccco1 | active: 5.17 µM | 
Cc1cc2ccc(C)c(C)c2nc1SCC(=O)c1cccs1 | inconclusive: 16.4 µM [cytotoxic, single point] | 
